Data as given in PMC12071843.
No constants are given. Whether binding was seen depends on the method and setting. Binding seen in cells or lysates may run through a third protein. A yes stands for co-enrichment or nearness to the bait. Other partners may have been found.

Sequences of proteins named here, by UniProt entry; tags and fusion partners are left off. A change or cut given only in a name is not applied to a line headed by its entry.
UniProt P08254: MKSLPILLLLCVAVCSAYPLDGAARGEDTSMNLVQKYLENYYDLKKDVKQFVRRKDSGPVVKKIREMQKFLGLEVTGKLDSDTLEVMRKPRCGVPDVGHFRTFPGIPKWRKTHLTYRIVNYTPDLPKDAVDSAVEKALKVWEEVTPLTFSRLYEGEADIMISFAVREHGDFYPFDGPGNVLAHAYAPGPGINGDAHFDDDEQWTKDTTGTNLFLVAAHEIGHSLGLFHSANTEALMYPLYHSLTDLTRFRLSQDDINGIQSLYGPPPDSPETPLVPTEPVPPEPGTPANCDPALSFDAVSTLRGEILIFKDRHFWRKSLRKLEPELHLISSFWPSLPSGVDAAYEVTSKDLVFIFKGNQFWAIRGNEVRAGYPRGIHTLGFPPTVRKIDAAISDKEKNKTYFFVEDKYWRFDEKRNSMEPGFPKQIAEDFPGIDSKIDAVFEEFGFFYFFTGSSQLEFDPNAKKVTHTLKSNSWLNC

Target: Matrix metalloproteinase 3 (human (endogenous in OVCAR3CIS)) (UniProt P08254)
Test: affinity purification with mass spectrometry; extracellular MMP3: supernatants of serum-free OVCAR3CIS cells, untreated or cisplatin-treated, pre-cleared on protein A/G magnetic beads, anti-MMP3 antibody (Abcam) 10 ug/200 ug protein at 4 °C overnight, protein A/G magnetic beads (Pierce MS-compatible Magnetic IP Kit), eluate by LC-MS/MS

Binder | binding
Uncharacterized protein KIAA0232 (protein, UniProt Q92628 1-1395) MYPICTVVVDGLPSESSSSSYPGPVSVSEMSLLHALGPVQTWLGQELEKCGIDAMIYTRYVLSLLLHDSYDYDLQEQENDIFLGWEKGAYKKWGKSKKKCSDLTLEEMKKQAAVQCLRSASDESSGIETLVEELCSRLKDLQSKQEEKIHKKLEGSPSPEAELSPPAKDQVEMYYEAFPPLSEKPVCLQEIMTVWNKSKVCSYSSSSSSSTAPPASTDTSSPKDCNSESEVTKERSSEVPTTVHEKTQSKSKNEKENKFSNGTIEEKPALYKKQIRHKPEGKIRPRSWSSGSSEAGSSSSGNQGELKASMKYVKVRHKAREIRNKKGRNGQSRLSLKHGEKAERNIHTGSSSSSSSGSVKQLCKRGKRPLKEIGRKDPGSTEGKDLYMENRKDTEYKEEPLWYTEPIAEYFVPLSRKSKLETTYRNRQDTSDLTSEAVEELSESVHGLCISNNNLHKTYLAAGTFIDGHFVEMPAVINEDIDLTGTSLCSLPEDNKYLDDIHLSELTHFYEVDIDQSMLDPGASETMQGESRILNMIRQKSKENTDFEAECCIVLDGMELQGERAIWTDSTSSVGAEGLFLQDLGNLAQFWECCSSSSGDADGESFGGDSPVRLSPILDSTVLNSHLLAGNQELFSDINEGSGINSCFSVFEVQCSNSVLPFSFETLNLGNENTDSSANMLGKTQSRLLIWTKNSAFEENEHCSNLSTRTCSPWSHSEETRSDNETLNIQFEESTQFNAEDINYVVPRVSSNYVDEELLDFLQDETCQQNSRTLGEIPTLVFKKTSKLESVCGIQLEQKTENKNFETTQVCNESPHGDGYSSGVIKDIWTKMADTNSVATVEIERTDAELFSADVNNYCCCLDAEAELETLQEPDKAVRRSEYHLWEGQKESLEKRAFASSELSNVDGGDYTTPSKPWDVAQDKENTFILGGVYGELKTFNSDGEWAVVPPSHTKGSLLQCAASDVVTIAGTDVFMTPGNSFAPGHRQLWKPFVSFEQNDQPKSGENGLNKGFSFIFHEDLLGACGNFQVEDPGLEYSFSSFDLSNPFSQVLHVECSFEPEGIASFSPSFKPKSILCSDSDSEVFHPRICGVDRTQYRAIRISPRTHFRPISASELSPGGGSESEFESEKDEANIPIPSQVDIFEDPQADLKPLEEDAEKEGHYYGKSELESGKFLPRLKKSGMEKSAQTSLDSQEESTGILSVGKQNQCLECSMNESLEIDLESSEANCKIMAQCEEEINNFCGCKAGCQFPAYEDNPVSSGQLEEFPVLNTDIQGMNRSQEKQTWWEKALYSPLFPASECEECYTNAKGESGLEEYPDAKETPSNEERLLDFNRVSSVYEARCTGERDSGAKSDGFRGKMCSSASSTSEETGSEGGGEWVGPSEEELFSRTHL | binds
Nuclear pore-associated protein 1 (protein, UniProt Q9NZP6 1-1156) MGNLLSKFRPGCRRRPLPGPGRGAPAPLSRDASPPGRAHSVPTPRPFRGLFRRNARRRPSAASIFVAPKRPCPLPRAAAAPLGVLPAVGWGLAIRKTPMLPARNPPRFGHPSSVRIPPPSRMFTLLLPSPREPAVKARKPIPATLLEETEVWAQEGPRRVKKDEDPVQIEGEDDEKRTPLSSGEASSTSRSQGTQGDVASFRCSPGPLEGNVYHKFSENSMSEKAQASPASSCLEGPAMPSTHSQAGCARHLGKPDPDATAPPEPAVGCSLLQQKLAAEVLNEEPPPSSLGLPIPLMSGKRMPDEKPFCIPPRSAAPPRAARNRPCKRKMSIPLLLPLPPSLPLLWDRGELPPPAKLPCLSVEGDLHTLEKSPEYKRNSRILEDKTETMTNSSITQPAPSFSQPVQTTDSLPLTTYTSQVSAPLPIPDLADLATGPLILPIPPLSTTPKMDEKIAFTIPNSPLALPADLVPILGDQSNEKGGSYNSVVGAAPLTSDPPTPPSSTPSFKPPVTRESPISMCVDSPPPLSFLTLLPVPSTGTSVITSKPMNSTSVISTVTTNASAHLTSQTAVDPEVVNMDTTAPSQVVIFTSSLSSRVSSLPNSQIHCSAEQRHPGKTSVYTSPLPFIFHNTTPSFNQLFGKEATPQPKFEAPDGQPQKASLPSACVFLSLPIIPPPDTSTLVNSASTASSSKPPIETNAMHTTPPSKAVILQSASVSKKYLPFYLGLPGSGNTQPSGNTASVQGSTSLPAQSVRAPATASNHPLNPGATPQPKFGAPDGPQQKTSLPSAHDFLSLPIMVPPDTSTLVSSASAASLSKPAIDTSDMNTTPPSKTVILQSTFVSRKEEYIRFYMGLPGSGNTLHSDSIASAQVSTSFPAQADRRPTTTSSHPLNTGSISHSTLGATDGQQKSDSSFILGNPATPAPVIGLTSPSVQPLSGSIIPPGFAELTSPYTALGTPVNAEPVEGHNASAFPNGTAKTSGFRIATGMPGTGDSTLLVGNTIPGPQVIMGPGTPMDGGSIGFSMSAPGPSSTSGELNIGQGQSGTPSTTSVFPFGQAAWDPTGHSMAAAPQGASNIPVFGYTSAAAYIPGLDPPTQNSCSGMGGDGTRSIVGGPCVPAFQQCILQHTWTERKFYTSSTHYYGQETYVRRHVCFQLP | binds
